Laboratory results as given in PMC4783296, “Structural basis underlying CAC RNA recognition by the RRM domain of dimeric RNA-binding protein RBPMS”.
A weaker result is weaker than the reference pair of the same experiment.

Sequences of proteins named here, by UniProt entry; tags and fusion partners are left off. Residues count along the entry.
UniProt Q93062, 14-111 R38Q: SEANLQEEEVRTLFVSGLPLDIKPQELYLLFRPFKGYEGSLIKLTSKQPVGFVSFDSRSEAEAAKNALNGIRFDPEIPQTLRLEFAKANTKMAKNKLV
UniProt Q93062, 14-111 K36E/R38E: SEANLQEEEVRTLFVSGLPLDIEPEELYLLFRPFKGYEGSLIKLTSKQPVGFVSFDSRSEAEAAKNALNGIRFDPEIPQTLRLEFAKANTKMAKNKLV
UniProt Q93062, 14-111 R38A/E39A: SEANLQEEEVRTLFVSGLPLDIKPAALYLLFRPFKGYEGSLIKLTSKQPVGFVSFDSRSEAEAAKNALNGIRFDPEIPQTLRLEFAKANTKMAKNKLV

Tests used:
Assay in all cases: ITC
Conditions in all cases: Kd printed only in figure; ITC: 20 mM Tris-HCl pH 7.5, 100 mM NaCl, 25 C; 0.03-0.05 mM protein in cell, 0.26-0.5 mM RNA in syringe, single-site model; recombinant protein; residues 14-111; protein details: 6His-SUMO removed with Ulp1
RBPMS RRM R38Q (human) = RBPMS RRM R38Q (human) (UniProt Q93062)
[1] = target: RBPMS RRM K36E/R38E (human) (UniProt Q93062)
[2] = target: RBPMS RRM R38A/E39A (human) (UniProt Q93062)

Measured: binding result

GCACUUUCAACUUCACU [ETF1 17-nt RNA]
binds more weakly: all assays above
